The values that follow come from article PMC12771342.

Protein sequences, listed by entry. Tags and fused reporters are not part of them.
UniProt Q8K4Q0: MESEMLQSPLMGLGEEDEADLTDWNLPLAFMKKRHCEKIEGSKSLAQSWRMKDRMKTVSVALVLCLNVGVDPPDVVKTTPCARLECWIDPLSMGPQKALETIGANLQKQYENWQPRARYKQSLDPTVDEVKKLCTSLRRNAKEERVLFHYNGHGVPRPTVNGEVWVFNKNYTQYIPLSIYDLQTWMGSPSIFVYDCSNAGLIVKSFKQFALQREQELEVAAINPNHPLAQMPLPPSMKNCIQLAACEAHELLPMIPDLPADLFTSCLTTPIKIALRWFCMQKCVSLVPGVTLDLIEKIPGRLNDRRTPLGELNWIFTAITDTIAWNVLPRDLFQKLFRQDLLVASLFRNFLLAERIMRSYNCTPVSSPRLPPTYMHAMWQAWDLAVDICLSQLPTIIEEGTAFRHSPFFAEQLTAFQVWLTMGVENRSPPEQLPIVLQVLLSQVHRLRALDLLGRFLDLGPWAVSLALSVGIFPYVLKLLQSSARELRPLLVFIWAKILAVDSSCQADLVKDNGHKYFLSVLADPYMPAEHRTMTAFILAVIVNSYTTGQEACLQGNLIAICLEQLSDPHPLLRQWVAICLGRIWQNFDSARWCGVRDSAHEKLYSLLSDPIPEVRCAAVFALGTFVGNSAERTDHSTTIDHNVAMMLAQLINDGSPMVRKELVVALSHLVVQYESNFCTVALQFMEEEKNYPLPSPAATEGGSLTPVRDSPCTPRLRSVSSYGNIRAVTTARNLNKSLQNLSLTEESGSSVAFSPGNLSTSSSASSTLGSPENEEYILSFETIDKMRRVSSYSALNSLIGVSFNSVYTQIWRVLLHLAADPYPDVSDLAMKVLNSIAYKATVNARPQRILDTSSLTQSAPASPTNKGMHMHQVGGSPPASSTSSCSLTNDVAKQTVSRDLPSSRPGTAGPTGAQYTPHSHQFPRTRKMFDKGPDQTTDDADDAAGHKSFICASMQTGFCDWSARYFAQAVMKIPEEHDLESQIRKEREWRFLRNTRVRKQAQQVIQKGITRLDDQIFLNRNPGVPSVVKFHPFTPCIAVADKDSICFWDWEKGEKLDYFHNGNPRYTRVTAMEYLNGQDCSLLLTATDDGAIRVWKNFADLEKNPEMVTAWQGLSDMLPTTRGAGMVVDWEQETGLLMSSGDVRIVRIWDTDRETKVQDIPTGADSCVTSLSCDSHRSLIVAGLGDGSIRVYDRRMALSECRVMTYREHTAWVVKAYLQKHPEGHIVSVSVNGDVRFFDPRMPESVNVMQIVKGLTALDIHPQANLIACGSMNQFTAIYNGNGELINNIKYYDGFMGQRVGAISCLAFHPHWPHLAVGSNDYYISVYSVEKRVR
UniProt P28033: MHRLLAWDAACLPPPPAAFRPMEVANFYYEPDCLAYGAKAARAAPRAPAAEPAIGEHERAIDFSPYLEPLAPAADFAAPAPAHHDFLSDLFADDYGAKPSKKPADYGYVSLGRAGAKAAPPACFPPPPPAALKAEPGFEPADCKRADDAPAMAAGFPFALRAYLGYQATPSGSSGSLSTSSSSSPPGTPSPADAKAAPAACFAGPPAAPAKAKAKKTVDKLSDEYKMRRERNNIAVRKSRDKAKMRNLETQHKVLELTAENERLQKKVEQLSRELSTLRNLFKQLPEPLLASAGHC

Results are given in words; binding and its absence hold for the method and conditions named. Binding seen in cells or lysates may run through a third protein. Some entries that bind do so weakly or less than the wild type.

The assay addresses Raptor (mouse (endogenous in cardiac macrophages of BALB/c mice)) (UniProt Q8K4Q0). The assay can be described thus: co-IP; immunoprecipitation of Raptor, immunoblot for total and phosphorylated C/EBPβ; cardiac macrophages from Con, Rap, EAM and EAM + Rap mice. For orientation: A western blot detects proteins with antibodies after separation by electrophoresis.

Turning to “CCAAT/enhancer-binding protein beta (from UniProt P28033 1-296)”, the binding entry was “binds”.
